# Test results from publication doi:10.1101/2022.09.09.507380.
# Protein sequences, listed by entry. Tags and fused reporters are not part of them.
# UniProt P36873: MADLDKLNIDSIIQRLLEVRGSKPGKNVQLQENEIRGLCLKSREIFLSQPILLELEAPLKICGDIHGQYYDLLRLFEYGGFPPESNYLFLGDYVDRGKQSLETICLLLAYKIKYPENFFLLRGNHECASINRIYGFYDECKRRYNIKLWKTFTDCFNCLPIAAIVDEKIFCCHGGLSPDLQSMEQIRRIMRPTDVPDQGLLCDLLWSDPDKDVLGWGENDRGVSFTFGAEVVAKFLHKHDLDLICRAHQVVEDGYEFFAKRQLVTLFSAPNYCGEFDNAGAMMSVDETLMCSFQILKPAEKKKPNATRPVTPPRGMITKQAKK
# UniProt P62140: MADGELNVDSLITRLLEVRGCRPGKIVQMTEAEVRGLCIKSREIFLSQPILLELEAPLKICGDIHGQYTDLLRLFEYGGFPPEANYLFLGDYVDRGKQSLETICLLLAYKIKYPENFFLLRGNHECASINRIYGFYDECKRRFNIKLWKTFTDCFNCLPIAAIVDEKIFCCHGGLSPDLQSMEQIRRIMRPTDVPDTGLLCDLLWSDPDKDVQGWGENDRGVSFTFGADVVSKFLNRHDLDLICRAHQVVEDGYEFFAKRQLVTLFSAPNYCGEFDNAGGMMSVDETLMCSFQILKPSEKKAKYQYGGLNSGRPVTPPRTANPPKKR
# No constants are given. Whether binding was seen depends on the method and setting. Binding seen in cells or lysates may run through a third protein. A yes stands for co-enrichment or nearness to the bait. Other partners may have been found. A no says only that the protein was not detected with the bait.
# B1: MYPT2 (protein, UniProt O60237 1-982)
# chain: MAELEHLGGKRAESARMRRAEQLRRWRGSLTEQEPAERRGAGRQPLTRRGSPRVRFEDGAVFLAACSSGDTDEVRKLLARGADINTVNVDGLTALHQACIDENLDMVKFLVENRANVNQQDNEGWTPLHAAASCGYLNIAEYFINHGASVGIVNSEGEVPSDLAEEPAMKDLLLEQVKKQGVDLEQSRKEEEQQMLQDARQWLNSGKIEDVRQARSGATALHVAAAKGYSEVLRLLIQAGYELNVQDYDGWTPLHAAAHWGVKEACSILAEALCDMDIRNKLGQTPFDVADEGLVEHLELLQKKQNVLRSEKETRNKLIESDLNSKIQSGFFKNKEKMLYEEETPKSQEMEEENKESSSSSSEEEEGEDEASESETEKEADKKPEAFVNHSNSESKSSITEQIPAPAQNTFSASSARRFSSGLFNKPEEPKDESPSSWRLGLRKTGSHNMLSEVANSREPIRDRGSSIYRSSSSPRISALLDNKDKERENKSYISSLAPRKLNSTSDIEEKENRESAVNLVRSGSYTRQLWRDEAKGNEIPQTIAPSTYVSTYLKRTPHKSQADTTAEKTADNVSSSTPLCVITNRPLPSTANGVTATPVLSITGTDSSVEAREKRRSYLTPVRDEEAESLRKARSRQARQTRRSTQGVTLTDLQEAERTFSRSRAERQAQEQPREKPTDTEGLEGSPEKHEPSAVPATEAGEGQQPWGRSLDEEPICHRLRCPAQPDKPTTPASPSTSRPSLYTSSHLLWTNRFSVPDSESSETTTNTTTAKEMDKNENEEADLDEQSSKRLSIRERRRPKERRRGTGINFWTKDEDETDGSEEVKETWHERLSRLESGGSNPTTSDSYGDRASARARREAREARLATLTSRVEEDSNRDYKKLYESALTENQKLKTKLQEAQLELADIKSKLEKVAQQKQEKTSDRSSVLEMEKRERRALERKMSEMEEEMKVLTELKSDNQRLKDENGALIRVISKLSK
# B2: KIF18A (protein, UniProt Q8NI77 1-898)
# chain: MSVTEEDLCHHMKVVVRVRPENTKEKAAGFHKVVHVVDKHILVFDPKQEEVSFFHGKKTTNQNVIKKQNKDLKFVFDAVFDETSTQSEVFEHTTKPILRSFLNGYNCTVLAYGATGAGKTHTMLGSADEPGVMYLTMLHLYKCMDEIKEEKICSTAVSYLEVYNEQIRDLLVNSGPLAVREDTQKGVVVHGLTLHQPKSSEEILHLLDNGNKNRTQHPTDMNATSSRSHAVFQIYLRQQDKTASINQNVRIAKMSLIDLAGSERASTSGAKGTRFVEGTNINRSLLALGNVINALADSKRKNQHIPYRNSKLTRLLKDSLGGNCQTIMIAAVSPSSVFYDDTYNTLKYANRAKDIKSSLKSNVLNVNNHITQYVKICNEQKAEILLLKEKLKAYEEQKAFTNENDQAKLMISNPQEKEIERFQEILNCLFQNREEIRQEYLKLEMLLKENELKSFYQQQCHKQIEMMCSEDKVEKATGKRDHRLAMLKTRRSYLEKRREEELKQFDENTNWLHRVEKEMGLLSQNGHIPKELKKDLHCHHLHLQNKDLKAQIRHMMDLACLQEQQHRQTEAVLNALLPTLRKQYCTLKEAGLSNAAFESDFKEIEHLVERKKVVVWADQTAEQPKQNDLPGISVLMTFPQLGPVQPIPCCSSSGGTNLVKIPTEKRTRRKLMPSPLKGQHTLKSPPSQSVQLNDSLSKELQPIVYTPEDCRKAFQNPSTVTLMKPSSFTTSFQAISSNINSDNCLKMLCEVAIPHNRRKECGQEDLDSTFTICEDIKSSKCKLPEQESLPNDNKDILQRLDPSSFSTKHSMPVPSMVPSYMAMTTAAKRKRKLTSSTSNSSLTADVNSGFAKRVRQDNSSEKHLQENKPTMEHKRNICKINPSMVRKFGRNISKGNLR
# B3: RASSF8 (endogenous) (protein, UniProt Q8NHQ8 1-419)
# chain: MELKVWVDGVQRIVCGVTEVTTCQEVVIALAQAIGRTGRYTLIEKWRDTERHLAPHENPIISLNKWGQYASDVQLILRRTGPSLSERPTSDSVARIPERTLYRQSLPPLAKLRPQIDKSIKRREPKRKSLTFTGGAKGLMDIFGKGKETEFKQKVLNNCKTTADELKKLIRLQTEKLQSIEKQLESNEIEIRFWEQKYNSNLEEEIVRLEQKIKRNDVEIEEEEFWENELQIEQENEKQLKDQLQEIRQKITECENKLKDYLAQIRTMESGLEAEKLQREVQEAQVNEEEVKGKIGKVKGEIDIQGQQSLRLENGIKAVERSLGQATKRLQDKEQELEQLTKELRQVNLQQFIQQTGTKVTVLPAEPIEIEASHADIEREAPFQSGSLKRPGSSRQLPSNLRILQNPISSGFNPEGIYV
# B4: RASSF7 (endogenous) (protein, UniProt Q02833 1-373)
# chain: MLLGLAAMELKVWVDGIQRVVCGVSEQTTCQEVVIALAQAIGQTGRFVLVQRLREKERQLLPQECPVGAQATCGQFASDVQFVLRRTGPSLAGRPSSDSCPPPERCLIRASLPVKPRAALGCEPRKTLTPEPAPSLSRPGPAAPVTPTPGCCTDLRGLELRVQRNAEELGHEAFWEQELRREQAREREGQARLQALSAATAEHAARLQALDAQARALEAELQLAAEAPGPPSPMASATERLHQDLAVQERQSAEVQGSLALVSRALEAAERALQAQAQELEELNRELRQCNLQQFIQQTGAALPPPPRPDRGPPGTQGPLPPAREESLLGAPSESHAGAQPRPRGGPHDAELLEVAAAPAPEWCPLAAQPQAL
# Biological target: GFP-hPP1γ (pEGFP expression plasmid, stable cell lines) (human) (UniProt P36873)
# Experiment: affinity purification with mass spectrometry
row,binding,Binder
1,no binding,B1
2,binds,B2
3,no binding,B3
4,no binding,B4

# Biological target: hPP1β-GFP (pEGFP expression plasmid, stable cell lines) (human) (UniProt P62140)
# Experiment: affinity purification with mass spectrometry
row,binding,Binder
1,binds,B1
2,binds,B2
3,no binding,B3
4,no binding,B4
